{"sequences": {"note": "Protein sequences, listed by entry. Tags and fused reporters are not part of them. Lines headed by an entry give the natural chain unless they say otherwise; changes in a name come on top.", "UniProt Q96S59, whole entry, looked up": "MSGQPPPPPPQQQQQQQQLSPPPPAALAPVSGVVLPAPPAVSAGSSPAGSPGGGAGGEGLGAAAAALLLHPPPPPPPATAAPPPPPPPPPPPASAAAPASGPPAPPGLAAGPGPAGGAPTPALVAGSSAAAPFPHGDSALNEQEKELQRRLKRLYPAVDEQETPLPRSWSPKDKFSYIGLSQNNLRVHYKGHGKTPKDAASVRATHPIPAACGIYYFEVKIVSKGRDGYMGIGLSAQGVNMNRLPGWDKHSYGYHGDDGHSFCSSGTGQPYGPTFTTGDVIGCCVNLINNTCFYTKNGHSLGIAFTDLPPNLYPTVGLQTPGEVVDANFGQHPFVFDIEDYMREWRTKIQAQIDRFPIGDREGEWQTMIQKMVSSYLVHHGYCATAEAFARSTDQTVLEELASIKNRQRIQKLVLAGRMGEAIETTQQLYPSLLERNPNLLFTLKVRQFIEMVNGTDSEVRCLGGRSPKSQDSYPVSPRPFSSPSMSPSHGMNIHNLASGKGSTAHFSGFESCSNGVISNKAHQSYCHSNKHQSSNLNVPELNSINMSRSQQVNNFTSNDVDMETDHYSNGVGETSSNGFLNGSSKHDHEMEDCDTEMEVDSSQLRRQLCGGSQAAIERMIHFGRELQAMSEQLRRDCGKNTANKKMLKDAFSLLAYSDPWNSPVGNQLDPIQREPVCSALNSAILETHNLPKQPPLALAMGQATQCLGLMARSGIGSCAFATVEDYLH", "UniProt Q96PU8": "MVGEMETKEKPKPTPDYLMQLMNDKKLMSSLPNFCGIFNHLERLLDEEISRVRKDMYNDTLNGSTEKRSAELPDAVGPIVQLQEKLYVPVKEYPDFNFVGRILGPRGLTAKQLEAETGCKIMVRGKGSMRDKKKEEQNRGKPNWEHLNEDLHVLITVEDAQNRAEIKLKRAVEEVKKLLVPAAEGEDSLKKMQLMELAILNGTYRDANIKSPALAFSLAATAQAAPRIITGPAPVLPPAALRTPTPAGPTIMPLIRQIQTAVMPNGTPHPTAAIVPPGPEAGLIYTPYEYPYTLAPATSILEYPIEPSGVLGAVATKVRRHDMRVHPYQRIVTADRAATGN", "UniProt P53611": "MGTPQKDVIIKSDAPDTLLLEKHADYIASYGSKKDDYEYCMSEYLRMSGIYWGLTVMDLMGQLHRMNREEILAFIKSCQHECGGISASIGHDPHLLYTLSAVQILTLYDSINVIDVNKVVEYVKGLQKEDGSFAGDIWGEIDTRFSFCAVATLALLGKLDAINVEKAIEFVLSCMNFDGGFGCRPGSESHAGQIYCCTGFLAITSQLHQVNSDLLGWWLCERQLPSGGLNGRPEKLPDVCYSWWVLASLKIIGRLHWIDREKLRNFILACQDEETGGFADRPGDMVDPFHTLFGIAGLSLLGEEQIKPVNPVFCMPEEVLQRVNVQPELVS", "UniProt P78406": "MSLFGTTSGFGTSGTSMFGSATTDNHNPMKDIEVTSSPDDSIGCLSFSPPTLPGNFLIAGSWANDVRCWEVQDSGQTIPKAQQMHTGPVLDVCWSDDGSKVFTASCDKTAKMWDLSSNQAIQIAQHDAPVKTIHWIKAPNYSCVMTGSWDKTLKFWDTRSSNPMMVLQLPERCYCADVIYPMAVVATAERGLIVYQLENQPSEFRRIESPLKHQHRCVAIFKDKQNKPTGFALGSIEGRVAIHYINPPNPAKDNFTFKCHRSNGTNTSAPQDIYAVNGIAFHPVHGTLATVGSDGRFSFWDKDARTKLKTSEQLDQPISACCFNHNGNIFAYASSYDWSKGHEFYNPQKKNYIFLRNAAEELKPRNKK", "UniProt Q6GYQ0": "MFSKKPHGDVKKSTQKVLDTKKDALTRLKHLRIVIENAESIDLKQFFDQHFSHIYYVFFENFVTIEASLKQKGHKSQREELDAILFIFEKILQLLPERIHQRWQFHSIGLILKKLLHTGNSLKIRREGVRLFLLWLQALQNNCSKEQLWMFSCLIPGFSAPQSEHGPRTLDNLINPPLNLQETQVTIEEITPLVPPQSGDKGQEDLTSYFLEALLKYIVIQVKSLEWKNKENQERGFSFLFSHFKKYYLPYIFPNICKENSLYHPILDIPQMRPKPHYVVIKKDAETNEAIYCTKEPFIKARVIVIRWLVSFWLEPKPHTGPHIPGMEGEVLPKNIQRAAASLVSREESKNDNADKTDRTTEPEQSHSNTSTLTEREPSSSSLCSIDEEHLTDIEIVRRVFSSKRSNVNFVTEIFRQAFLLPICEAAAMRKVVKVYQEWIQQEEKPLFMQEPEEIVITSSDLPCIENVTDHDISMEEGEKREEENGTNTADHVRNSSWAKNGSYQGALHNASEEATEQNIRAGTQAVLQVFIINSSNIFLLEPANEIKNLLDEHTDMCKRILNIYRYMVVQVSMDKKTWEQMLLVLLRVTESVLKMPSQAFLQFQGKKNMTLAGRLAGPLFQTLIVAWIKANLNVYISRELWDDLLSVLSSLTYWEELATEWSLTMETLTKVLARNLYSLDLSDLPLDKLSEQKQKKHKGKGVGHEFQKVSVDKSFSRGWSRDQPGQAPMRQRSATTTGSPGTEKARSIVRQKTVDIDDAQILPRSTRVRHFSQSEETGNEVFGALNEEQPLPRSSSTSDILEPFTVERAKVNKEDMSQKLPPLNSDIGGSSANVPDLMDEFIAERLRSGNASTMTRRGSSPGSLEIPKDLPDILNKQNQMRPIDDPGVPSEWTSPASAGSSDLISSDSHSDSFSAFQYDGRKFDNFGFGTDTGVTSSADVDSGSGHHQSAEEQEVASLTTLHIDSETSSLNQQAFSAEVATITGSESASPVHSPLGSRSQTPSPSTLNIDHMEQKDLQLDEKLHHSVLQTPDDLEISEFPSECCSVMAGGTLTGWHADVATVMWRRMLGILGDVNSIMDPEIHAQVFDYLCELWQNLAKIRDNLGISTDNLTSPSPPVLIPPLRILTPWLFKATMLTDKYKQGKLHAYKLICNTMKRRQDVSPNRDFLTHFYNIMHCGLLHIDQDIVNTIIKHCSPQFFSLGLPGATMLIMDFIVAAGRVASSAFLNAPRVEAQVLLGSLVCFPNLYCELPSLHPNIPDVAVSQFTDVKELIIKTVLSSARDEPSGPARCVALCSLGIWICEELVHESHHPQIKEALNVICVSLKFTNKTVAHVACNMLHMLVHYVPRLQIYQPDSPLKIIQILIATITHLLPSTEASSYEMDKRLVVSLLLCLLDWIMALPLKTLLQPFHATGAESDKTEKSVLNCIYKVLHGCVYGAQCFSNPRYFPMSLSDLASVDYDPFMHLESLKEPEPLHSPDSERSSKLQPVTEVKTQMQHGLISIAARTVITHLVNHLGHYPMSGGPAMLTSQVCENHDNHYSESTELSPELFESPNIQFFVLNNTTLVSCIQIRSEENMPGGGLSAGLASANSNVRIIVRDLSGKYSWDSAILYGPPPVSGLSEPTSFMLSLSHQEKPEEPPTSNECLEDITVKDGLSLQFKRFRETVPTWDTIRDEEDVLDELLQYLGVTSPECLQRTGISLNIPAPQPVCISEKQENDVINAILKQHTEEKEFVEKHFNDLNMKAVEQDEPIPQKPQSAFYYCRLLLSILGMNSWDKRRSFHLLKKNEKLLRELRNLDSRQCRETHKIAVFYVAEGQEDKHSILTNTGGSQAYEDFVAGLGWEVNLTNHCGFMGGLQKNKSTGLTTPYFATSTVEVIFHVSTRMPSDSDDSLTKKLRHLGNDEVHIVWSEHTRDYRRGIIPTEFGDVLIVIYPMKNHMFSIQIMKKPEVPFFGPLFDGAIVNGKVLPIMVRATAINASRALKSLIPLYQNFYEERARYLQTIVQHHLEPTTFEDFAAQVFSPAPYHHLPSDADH", "UniProt Q9H6Z4": "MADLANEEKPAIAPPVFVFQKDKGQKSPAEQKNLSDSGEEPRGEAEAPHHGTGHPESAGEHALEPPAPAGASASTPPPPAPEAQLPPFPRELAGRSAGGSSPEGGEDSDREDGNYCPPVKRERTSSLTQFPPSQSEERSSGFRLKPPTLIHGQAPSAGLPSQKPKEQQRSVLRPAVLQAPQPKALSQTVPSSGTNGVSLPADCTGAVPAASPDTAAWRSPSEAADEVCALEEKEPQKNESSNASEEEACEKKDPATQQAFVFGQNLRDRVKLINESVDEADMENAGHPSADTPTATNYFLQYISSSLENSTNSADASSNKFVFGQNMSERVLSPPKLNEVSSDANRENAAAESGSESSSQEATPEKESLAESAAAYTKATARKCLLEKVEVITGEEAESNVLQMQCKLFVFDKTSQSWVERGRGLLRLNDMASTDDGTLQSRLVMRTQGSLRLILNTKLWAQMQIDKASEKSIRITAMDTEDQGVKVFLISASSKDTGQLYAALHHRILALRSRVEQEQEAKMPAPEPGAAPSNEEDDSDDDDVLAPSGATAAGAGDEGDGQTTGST", "UniProt P47224": "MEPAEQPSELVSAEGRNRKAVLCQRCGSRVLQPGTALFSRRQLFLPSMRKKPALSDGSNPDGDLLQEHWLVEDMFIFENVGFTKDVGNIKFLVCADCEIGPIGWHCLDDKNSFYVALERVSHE", "UniProt Q15311": "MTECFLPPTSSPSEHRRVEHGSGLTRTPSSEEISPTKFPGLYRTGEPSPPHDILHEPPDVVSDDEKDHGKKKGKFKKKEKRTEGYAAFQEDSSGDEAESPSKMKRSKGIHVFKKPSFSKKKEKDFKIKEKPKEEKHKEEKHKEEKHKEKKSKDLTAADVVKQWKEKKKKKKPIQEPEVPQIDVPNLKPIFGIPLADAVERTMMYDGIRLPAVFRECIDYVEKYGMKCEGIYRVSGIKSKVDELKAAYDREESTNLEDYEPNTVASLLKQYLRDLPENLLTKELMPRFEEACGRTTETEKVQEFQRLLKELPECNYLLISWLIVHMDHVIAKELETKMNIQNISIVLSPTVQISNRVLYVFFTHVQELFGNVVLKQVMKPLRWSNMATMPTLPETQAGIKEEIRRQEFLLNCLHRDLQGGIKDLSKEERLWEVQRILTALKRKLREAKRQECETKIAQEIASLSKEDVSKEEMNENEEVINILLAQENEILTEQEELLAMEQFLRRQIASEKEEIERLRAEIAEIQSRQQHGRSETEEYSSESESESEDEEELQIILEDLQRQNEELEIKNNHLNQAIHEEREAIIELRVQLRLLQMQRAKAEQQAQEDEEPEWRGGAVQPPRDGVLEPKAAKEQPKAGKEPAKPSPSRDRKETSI", "UniProt Q9UI14, whole entry, looked up": "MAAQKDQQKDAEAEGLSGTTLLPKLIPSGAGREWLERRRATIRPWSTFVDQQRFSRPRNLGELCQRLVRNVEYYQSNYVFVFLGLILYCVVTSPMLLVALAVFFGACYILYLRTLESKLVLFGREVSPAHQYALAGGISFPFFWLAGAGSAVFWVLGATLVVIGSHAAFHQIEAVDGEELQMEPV", "UniProt Q06609, whole entry, looked up": "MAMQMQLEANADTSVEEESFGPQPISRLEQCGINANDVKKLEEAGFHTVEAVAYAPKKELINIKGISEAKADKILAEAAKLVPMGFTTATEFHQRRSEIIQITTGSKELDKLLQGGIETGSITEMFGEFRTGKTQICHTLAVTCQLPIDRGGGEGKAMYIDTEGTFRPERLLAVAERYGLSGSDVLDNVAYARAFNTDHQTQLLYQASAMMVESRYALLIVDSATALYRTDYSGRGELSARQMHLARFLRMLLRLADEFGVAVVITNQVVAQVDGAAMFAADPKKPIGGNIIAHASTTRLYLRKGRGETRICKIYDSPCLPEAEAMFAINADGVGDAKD"}, "source": "the supplement of paper PMC10849652", "note": "The other results are listed elsewhere or left out."}
{"compound": "C1=CC=C(C=C1)[C@H](COC2=CC3=C(C=C2)NC(=O)N3)NC(=O)C4=CC=CN(C4=O)CC5=CC(=C(C=C5)F)F", "experiment": "log2 fold change, soluble protein after heating vs DMSO (PISA); higher = thermal stabilisation; K562 lysate, 10 uM; active = over 0.2 and 3.5 SD of the protein, either way, in both replicates (recomputed)", "procedure,_shortened": "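K562 pellets were dounce-homogenised in PBS pH 7.4 with 1 mM MgCl2, and the crude extract at 1 mg/mL protein was treated with 10 μM compound for 30 min. Aliquots were heated for 3 min across 48°C-58°C, pooled, and brought to 0.5% NP-40 at 4°C; soluble protein was the supernatant after 21,000xg for 90 min. Soluble protein was quantified by TMTpro 16plex LC-MS/MS with channel sums equalised, and reported as log2 fold change in thermal stability against DMSO controls, with values from duplicates.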"}
{"target": "RABEPK (UniProt Q7Z6M1)", "log2 fold change": "inactive: -0.032"}
{"target": "RAC1 isoform 2 (UniProt P63000)", "log2 fold change": "inactive: 0.078"}
{"target": "RANBP9 (UniProt Q96S59)", "log2 fold change": "inactive: 0.021"}
{"target": "RABGGTA (UniProt Q92696)", "log2 fold change": "inactive: 0.007"}
{"target": "RAB2B (UniProt Q8WUD1)", "log2 fold change": "inactive: -0.016"}
{"target": "QKI (UniProt Q96PU8)", "log2 fold change": "inactive: -0.071"}
{"target": "RAB30 (UniProt Q15771)", "log2 fold change": "inactive: -0.041"}
{"target": "RAD9A (UniProt Q99638)", "log2 fold change": "inactive: 0.014"}
{"target": "RAB10 (UniProt P61026)", "log2 fold change": "inactive: -0.016"}
{"target": "RABGGTB (UniProt P53611)", "log2 fold change": "inactive: -0.102"}
{"target": "RABGEF1 isoform 3 (UniProt Q9UJ41)", "log2 fold change": "inactive: 0.01"}
{"target": "RABGAP1L isoform 5 (UniProt Q5R372)", "log2 fold change": "inactive: 0.015"}
{"target": "RAE1 (UniProt P78406)", "log2 fold change": "inactive: -0.022"}
{"target": "RAB20 (UniProt Q9NX57)", "log2 fold change": "inactive: 0.008"}
{"target": "RALGAPA1 isoform 6 (UniProt Q6GYQ0)", "log2 fold change": "inactive: -0.041"}
{"target": "RAB9A (UniProt P51151)", "log2 fold change": "inactive: 0.014"}
{"target": "RAD23B (UniProt P54727)", "log2 fold change": "inactive: -0.006"}
{"target": "PYGL (UniProt P06737)", "log2 fold change": "inactive: 0.006"}
{"target": "RAP2C (UniProt Q9Y3L5)", "log2 fold change": "inactive: -0.081"}
{"target": "PYCARD (UniProt Q9ULZ3)", "log2 fold change": "inactive: 0.009"}
{"target": "RAB7A (UniProt P51149)", "log2 fold change": "inactive: 0.003"}
{"target": "QPRT (UniProt Q15274)", "log2 fold change": "inactive: -0.059"}
{"target": "RAC2 (UniProt P15153)", "log2 fold change": "inactive: -0.116"}
{"target": "RANBP3 isoform 2 (UniProt Q9H6Z4)", "log2 fold change": "inactive: 0.069"}
{"target": "RABIF (UniProt P47224)", "log2 fold change": "inactive: -0.013"}
{"target": "RAB11FIP4 (UniProt Q86YS3)", "log2 fold change": "inactive: 0.004"}
{"target": "PYCR1 (UniProt J3QKT4)", "log2 fold change": "inactive: 0.134"}
{"target": "RAP1B (UniProt F5GZG1)", "log2 fold change": "inactive: -0.082"}
{"target": "RAD18 (UniProt Q9NS91)", "log2 fold change": "inactive: -0.004"}
{"target": "RAB14 (UniProt P61106)", "log2 fold change": "inactive: -0.055"}
{"target": "RALBP1 (UniProt Q15311)", "log2 fold change": "inactive: -0.032"}
{"target": "RAD51C (UniProt O43502)", "log2 fold change": "inactive: -0.028"}
{"target": "RACGAP1 (UniProt Q9H0H5)", "log2 fold change": "inactive: 0.051"}
{"target": "RALGAPB (UniProt Q86X10)", "log2 fold change": "inactive: 0.029"}
{"target": "RABAC1 (UniProt Q9UI14)", "log2 fold change": "inactive: -0.019"}
{"target": "RACK1 (UniProt D6RF23)", "log2 fold change": "inactive: 0.188"}
{"target": "RAD51 (UniProt Q06609)", "log2 fold change": "inactive: -0.039"}
{"target": "QARS (UniProt P47897)", "log2 fold change": "inactive: -0.029"}
{"target": "RAI14 isoform 2 (UniProt Q9P0K7)", "log2 fold change": "inactive: 0.002"}
{"target": "RAN (UniProt P62826)", "log2 fold change": "inactive: 0.008"}
